Patent US7098367B2, “Process for the preparation of alkylene glycols” (Saudi Basic Industries Corporation, priority 2004, dated 2006)

Assay: Catalytic hydration of ethylene oxide to monoethylene glycol (MultiClave, GC analysis)
Settings: catalyst in 2 or 5 ml deionized water, EO:water feed, 250 psig carbon dioxide, 100° C., 10 hours, G.C.

CN(C)c1ccccc1 [Comparative 1, Dimethylaniline, reference compound]
selectivity to MEG: 88%

NC(=O)NC12CC3CC(CC(C3)C1)C2 [Comparative 3, N-(1-adamantyl)urea, reference compound]
selectivity to MEG: 90%

c1cnc2c(c1)ccc1cccnc12 [Comparative 4, 1,10-phenathroline (PHEN), reference compound]
selectivity to MEG: 90%

NCCN [Example 1, Ethylenediamine (EDA)]
selectivity to MEG: 92%

C1CCCNCC1 [Example 3, Hexamethyleneimine]
selectivity to MEG: 93%

C1CNCCNCCNCCN1 [Example 4, 1,4,7,10-tetraazacyclododecane (Cyclen)]
selectivity to MEG: 92%

C1CN2CCN1CC2 [Example 5, 1,4-diazabicyclo[2,2,2]octane (DABCO)]
selectivity to MEG: 96%

NCCCN [Example 6, 1,3-diaminopropane (DAP)]
selectivity to MEG: 95%

CN(CCCN)CCCN [Example 7, 3,3′-diamino-N-methyldipropylamine]
selectivity to MEG: ~94%

NCCCNCCNCCCN [Example 8, 1,5,8,12-tetroazadodecane]
selectivity to MEG: 93%

CN(C)c1ccccn1 [Example 10, 2-dimethylaminopyridine (2-DMAP)]
selectivity to MEG: 92%

CN(C)CCN(C)C [Example 12, Tetramethylethylenediamine (TMEDA)]
selectivity to MEG: 95%
